According to article doi:10.1101/2021.03.10.434893:
These are yes or no findings as the source states them, for the method shown. A result given as binding can be weak or reduced; the word gives no strength.

Columns and labels:
[1] = target: uS12m (pig (endogenous in porcine liver)); assay: cryo-EM structure
[2] = target: uL16m (pig (endogenous in porcine liver)); assay: cryo-EM structure

B1: mitochondrial ribosome recycling factor (protein, UniProt Q96E11 27-262)
chain: GGSGSGSEVTLKTVHERQHGHRQYMAYSAVPVRHFATKKAKAKGKGQSQTRVNINAALVEDIINLEEVNEEMKSVIEALKDNFNKTLNIRTSPGSLDKIAVVTADGKLALNQISQISMKSPQLILVNMASFPECTAAAIKAIRESGMNLNPEVEGTLIRVPIPQVTREHREMLVKLAKQNTNKAKDSLRKVRTNSMNKLKKSKDTVSEDTIRLIEKQISQMADDTVAELDRHLAVKTKELLG
binding [1]: binds weakly
binding [2]: binds

B2: mitochondria release factor 1a (protein, UniProt Q9UGC7 33-380)
chain: GGSGSGLEELFTRGGPLRTFLERQAGSEAHLKVRRPELLAVIKLLNEKERELRETEHLLHDENEDLRKLAENEITLCQKEITQLKHQIILLLVPSEETDENDLILEVTAGVGGQEAMLFTSEIFDMYQQYAAFKRWHFETLEYFPSELGGLRHASASIGGSEAYRHMKFEGGVHRVQRVPKTEKQGRVHTSTMTVAILPQPTEINLVINPKDLRIDTKRASGAGGQHVNTTDSAVRIVHLPTGVVSECQQERSQLKNKELAMTKLRAKLYSMHLEEEINKRQNARKIQIGSKGRSEKIRTYNFPQNRVTDHRINKTLHDLETFMQGDYLLDELVQSLKEYADYESLVEIISQKV
binding [1]: binds
